# This is one part of the list.
# Amino acid sequences for entries named in this document (tags omitted).
# UniProt Q0JBA9, entry or part of it: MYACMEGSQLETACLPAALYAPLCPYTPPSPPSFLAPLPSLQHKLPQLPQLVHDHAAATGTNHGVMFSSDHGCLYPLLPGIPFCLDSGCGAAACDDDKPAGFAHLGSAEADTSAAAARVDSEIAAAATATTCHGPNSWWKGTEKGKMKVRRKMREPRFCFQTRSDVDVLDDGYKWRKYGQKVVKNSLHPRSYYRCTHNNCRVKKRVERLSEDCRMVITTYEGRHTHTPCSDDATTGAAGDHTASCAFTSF
# Molecular target: OsWRKY34 (Oryza sativa, UniProt Q0JBA9 1-250)
# Assay: protein-binding microarray (RPBM); PBS, 2% BSA, 51.3 ng/ul salmon testes DNA, 50 uM zinc acetate, 200 nM TF, 25 C, 1 h; high values mean tight binding
# Details: protein: recombinant; tags: N-terminal polyhistidine and DsRed monomer fusion (pET32a); label: CyDye5-dUTP incorporated in the synthesized complementary strand; 3' TTTTT single-stranded linker to array surface; dsDNA, one strand shown
# Summary of the method: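 The binding signal for each feature is its fluorescence intensity in arbitrary units. An Axon 4000B scanner was used to read a custom Agilent array that had been made double-stranded with Cy5-dUTP primer extension, blocked with 2% BSA, incubated at 25 °C for 1 h with 200 nM protein in PBS, 2% BSA, salmon testes DNA and 50 µM zinc acetate, and washed. The protein was an N-terminal polyhistidine–DsRed transcription factor fusion from E. coli BL21-CodonPlus, purified on Ni–NTA.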
row,Sequence,binding signal
1,ATCATCCCGTCTCCGTCCTCGCCCGCCGCCGCCGCCGCCGCGGAGTCACCTAGTGCAG,9190 fluorescence intensity (a.u.)
2,CTCTCTCTCTCTCTCTCTCTCTCTCTCTTCTCCTTTCCCTCGGAGTCACCTAGTGCAG,9960 fluorescence intensity (a.u.)
3,AATCTTTCAATCTTCTTCACTCTTCAGTTTCTTTCATTCTCGGAGTCACCTAGTGCAG,9060 fluorescence intensity (a.u.)
4,CAACATACAGGGAGTTTTTACCGGCCGCCCTCTACTCTCACGGAGTCACCTAGTGCAG,9800 fluorescence intensity (a.u.)
5,ATCCACGTCATCCATGACATGGCCTCAATGTTTTCACACACGGAGTCACCTAGTGCAG,10400 fluorescence intensity (a.u.)
6,TTATTGGTAAATTTCACTTTGCTCATTTTTTTTATCATCGCGGAGTCACCTAGTGCAG,8730 fluorescence intensity (a.u.)
7,CTCTCTCTCTCTCTTCCTCACTCTCACTGTCTCACTGTCTCGGAGTCACCTAGTGCAG,10600 fluorescence intensity (a.u.)
8,GATCTTGAGCCTGCGTGGCATTGCTGTTAGTCTCACACTCCGGAGTCACCTAGTGCAG,10500 fluorescence intensity (a.u.)
9,TCCGTGGCGATTCTCATCCACGAGTTCGTCGTTTTTTTTTCGGAGTCACCTAGTGCAG,8150 fluorescence intensity (a.u.)
10,TCCCTATATGTACGATCCAATTCCTCTTTCTCCGTTTCAACGGAGTCACCTAGTGCAG,12000 fluorescence intensity (a.u.)
11,CTTGGCTGATTCCTTTTCTTCTCGATCGATCCCGTTATTCCGGAGTCACCTAGTGCAG,8540 fluorescence intensity (a.u.)
12,ATTTTCATTTTTTTTGTTATTTTTAGTGGTGCAAAAGCCACGGAGTCACCTAGTGCAG,9060 fluorescence intensity (a.u.)
13,TATTACTCTATCTCAAATCCATGCTACAAATCATACGCATCGGAGTCACCTAGTGCAG,8550 fluorescence intensity (a.u.)
14,CCACAATGATCAGCCCACATGTGCCTTGCACAGTATTGTACGGAGTCACCTAGTGCAG,8130 fluorescence intensity (a.u.)
15,TAACAGCTCTCTTCTGCAATCTGCATTGCCCTCTCTGTTCCGGAGTCACCTAGTGCAG,12200 fluorescence intensity (a.u.)
16,GCTTCATCCGATCGCCCGCGCCAAGAACTCGATCCTCATGCGGAGTCACCTAGTGCAG,8200 fluorescence intensity (a.u.)
17,TTTGGTCAAACTTAAAAAAGTTTGACTACAACTAAATTCACGGAGTCACCTAGTGCAG,8740 fluorescence intensity (a.u.)
18,CTCCGCCTCTCCGCCTCTCCGCCTAACCCTAACCCTAGCCCGGAGTCACCTAGTGCAG,8540 fluorescence intensity (a.u.)
19,CTGCAACTCTTGGCACCAGGAACCTTCGCTGTCTCAATCACGGAGTCACCTAGTGCAG,9650 fluorescence intensity (a.u.)
20,AGCTTCTTGTTACGCGTTCTCTGCTGATTGGCTTATCAACCGGAGTCACCTAGTGCAG,9450 fluorescence intensity (a.u.)
21,ATATTGTCACGTCCCCTTTTTCGTGTCTTCTATTTTGCTCCGGAGTCACCTAGTGCAG,9280 fluorescence intensity (a.u.)

row,Sequence,binding signal
1,CTCTCCACCTGCTGCATTACTGCACCTCCTCTACCTCCATCGGAGTCACCTAGTGCAG,11900 fluorescence intensity (a.u.)
2,TCAGTGGTTGTAGTGGTAGTACCATTATGGTAGAGGATGTCGGAGTCACCTAGTGCAG,8250 fluorescence intensity (a.u.)
3,TGGGACGCCGTACACTCCCTCAGCAGCCGCCTCGCATTCTCGGAGTCACCTAGTGCAG,10800 fluorescence intensity (a.u.)
4,TCTTGGTAACTACCCTGCTTGACTACTGAATTTTTCTTGCCGGAGTCACCTAGTGCAG,8320 fluorescence intensity (a.u.)
5,ATACACCGCCCGTTTCGCCAGTGTCTTTTCTCTTTTTACTCGGAGTCACCTAGTGCAG,8160 fluorescence intensity (a.u.)
6,TCTCACCGGCCTCGCAGCTGCTTCTACTTTACCGTCGTCACGGAGTCACCTAGTGCAG,8270 fluorescence intensity (a.u.)
7,CACCACCTCAGTCTATTACTATCTCTGCTCAGTTTCTTTTCGGAGTCACCTAGTGCAG,9830 fluorescence intensity (a.u.)
8,TTGACCCATCCTGATTAATTGTTTAGCTAAGTTTTTTTTACGGAGTCACCTAGTGCAG,8830 fluorescence intensity (a.u.)
9,TATCCTTTTCCGGCTACGTGTTGATTTTGCTCGTTTGTTCCGGAGTCACCTAGTGCAG,10700 fluorescence intensity (a.u.)
10,CCTTACAGTGTATTGGACCTATTGCATCTTTTAGCTCGTCCGGAGTCACCTAGTGCAG,8080 fluorescence intensity (a.u.)
11,CCACACCACCGTCCCCTCGCTGCCTGCCTCCACCTCACCTCGGAGTCACCTAGTGCAG,8950 fluorescence intensity (a.u.)
12,TTTGGTTAAAGTCAAACTACCATAAGTTTGACTAACTCTGCGGAGTCACCTAGTGCAG,12700 fluorescence intensity (a.u.)
13,CAGGTAATGGATTGATTGCAGGGTTGGGATTTGACCAGGTCGGAGTCACCTAGTGCAG,11300 fluorescence intensity (a.u.)
14,GTCAACCACCTCAGACATCACCAACGCTATAAAATGCTATCGGAGTCACCTAGTGCAG,10700 fluorescence intensity (a.u.)
15,TCTTTTTTCTGCCCAACATGCTTTCTTTTCTCTGATCTAGCGGAGTCACCTAGTGCAG,10900 fluorescence intensity (a.u.)
16,TATATATCTCGCACCAGGCTGTTCATATTTGCTCCTTACCCGGAGTCACCTAGTGCAG,8540 fluorescence intensity (a.u.)
17,ACTAGTCTCTTCTTACCGGAATCCCCACACCTTCTCGCCACGGAGTCACCTAGTGCAG,8980 fluorescence intensity (a.u.)
18,GACACACTTTTACCCTTACACAACCCGTTTGTTCCCTGCACGGAGTCACCTAGTGCAG,12200 fluorescence intensity (a.u.)
19,ATATATTTTTGTCTACTCAATCCTTTTTTCCCTTCTCTCACGGAGTCACCTAGTGCAG,8740 fluorescence intensity (a.u.)
20,CGGCGGTTACTGATGCGCTTATTTGATTTGATCACAACACCGGAGTCACCTAGTGCAG,8610 fluorescence intensity (a.u.)
21,GGCCTTTACACGGGCCCAAATGTATCTCTCTTGGTTGTAGCGGAGTCACCTAGTGCAG,8300 fluorescence intensity (a.u.)

row,Sequence,binding signal
1,TGGTGAACCCTCCGGGGTTTGGGTCTTTTTTTGCTTCGGTCGGAGTCACCTAGTGCAG,8790 fluorescence intensity (a.u.)
2,AAAGGGCAAGAGGTGTATGGTTTCGACCCTGAGATCCTTGCGGAGTCACCTAGTGCAG,8210 fluorescence intensity (a.u.)
3,ATCCTCTGTTTTACACTCGTATTTCTATCAGAATCCTATGCGGAGTCACCTAGTGCAG,8440 fluorescence intensity (a.u.)
4,TGTGTTCTTTGCTTATCGTTGGAAGCTAATTACTCTCACACGGAGTCACCTAGTGCAG,10900 fluorescence intensity (a.u.)
5,TCAACTCACCGACCGCCGCCCTTTCTCTGTCCCCAGCTCTCGGAGTCACCTAGTGCAG,9590 fluorescence intensity (a.u.)
6,TCAACTTTTTTACCACTCAATTCGTATACCCTCTATAATACGGAGTCACCTAGTGCAG,10300 fluorescence intensity (a.u.)
7,CTCTACCCAGCTCCACCTACTTTCAAGTTGTTAATTTTGACGGAGTCACCTAGTGCAG,10700 fluorescence intensity (a.u.)
8,TCCTCCACCATGCGGGCCCCACACATATCCGGTTTCTTCTCGGAGTCACCTAGTGCAG,10600 fluorescence intensity (a.u.)
9,GAGGAGGGGAGAAACGGGAGGTTGGTGGTGGTGGTGGAGGCGGAGTCACCTAGTGCAG,15200 fluorescence intensity (a.u.)
10,GCGGGGATTTGGAAATTTGGATGGATTTGGGAATTTGGGTCGGAGTCACCTAGTGCAG,8730 fluorescence intensity (a.u.)
11,AAACCCATGTACACCCTGCACTCGATCGCAAGCCACAACACGGAGTCACCTAGTGCAG,9610 fluorescence intensity (a.u.)
12,CTCCTCCCGCGCGCTCCGCCGCTTCTCCGACGACGTCCTCCGGAGTCACCTAGTGCAG,8140 fluorescence intensity (a.u.)
13,TGCCTAACCGTTTCTGAAAAGACTTGTTCCTGCCCATATTCGGAGTCACCTAGTGCAG,10300 fluorescence intensity (a.u.)
14,GAGCATTGTTTTATTCTGCAGCCCCATCGTTAGGCATATTCGGAGTCACCTAGTGCAG,10300 fluorescence intensity (a.u.)
15,CTCATCCTTTCGCTTATATTTATACCTATCAGCTAAAAATCGGAGTCACCTAGTGCAG,8060 fluorescence intensity (a.u.)
16,ACTTTTGCAGAACTTGATCTTCATTTTTCTTGTCGTATTTCGGAGTCACCTAGTGCAG,12300 fluorescence intensity (a.u.)
17,CTCCAAGTTGTGCTGATAAGTGGGTCTGGATATTTGCCATCGGAGTCACCTAGTGCAG,8380 fluorescence intensity (a.u.)
18,TTTGTCTACTTAATTTGTTCTTCTTCGCGACTTTGACCGTCGGAGTCACCTAGTGCAG,10700 fluorescence intensity (a.u.)
19,TTTGCTATTATACCGATCGTTTCCTTATTTACAATATTATCGGAGTCACCTAGTGCAG,10400 fluorescence intensity (a.u.)
20,CCAACGTTTGACTGTCTGTCTTATATGAAATTTTTTTATACGGAGTCACCTAGTGCAG,10900 fluorescence intensity (a.u.)
21,CCCGCCGCATTCGCTCACCGGTGAGCATCCTAATCCATCCCGGAGTCACCTAGTGCAG,10200 fluorescence intensity (a.u.)

# An excerpt of these results, tab-delimited.
row	Sequence	binding signal
10	CCTTACAGTGTATTGGACCTATTGCATCTTTTAGCTCGTCCGGAGTCACCTAGTGCAG	8080 fluorescence intensity (a.u.)
11	CCACACCACCGTCCCCTCGCTGCCTGCCTCCACCTCACCTCGGAGTCACCTAGTGCAG	8950 fluorescence intensity (a.u.)
12	TTTGGTTAAAGTCAAACTACCATAAGTTTGACTAACTCTGCGGAGTCACCTAGTGCAG	12700 fluorescence intensity (a.u.)
13	CAGGTAATGGATTGATTGCAGGGTTGGGATTTGACCAGGTCGGAGTCACCTAGTGCAG	11300 fluorescence intensity (a.u.)
14	GTCAACCACCTCAGACATCACCAACGCTATAAAATGCTATCGGAGTCACCTAGTGCAG	10700 fluorescence intensity (a.u.)
15	TCTTTTTTCTGCCCAACATGCTTTCTTTTCTCTGATCTAGCGGAGTCACCTAGTGCAG	10900 fluorescence intensity (a.u.)
16	TATATATCTCGCACCAGGCTGTTCATATTTGCTCCTTACCCGGAGTCACCTAGTGCAG	8540 fluorescence intensity (a.u.)
17	ACTAGTCTCTTCTTACCGGAATCCCCACACCTTCTCGCCACGGAGTCACCTAGTGCAG	8980 fluorescence intensity (a.u.)
18	GACACACTTTTACCCTTACACAACCCGTTTGTTCCCTGCACGGAGTCACCTAGTGCAG	12200 fluorescence intensity (a.u.)
19	ATATATTTTTGTCTACTCAATCCTTTTTTCCCTTCTCTCACGGAGTCACCTAGTGCAG	8740 fluorescence intensity (a.u.)
20	CGGCGGTTACTGATGCGCTTATTTGATTTGATCACAACACCGGAGTCACCTAGTGCAG	8610 fluorescence intensity (a.u.)

# Carrying on.

row,Sequence,binding signal
1,CAGTTGTTTCGCGTGTTCTTTGTGGAGTGGGCAGCTTCCCCGGAGTCACCTAGTGCAG,8640 fluorescence intensity (a.u.)
2,AATTCCACCACCTGTAGCAGCAGCGATCGCGTGTGTTCTTCGGAGTCACCTAGTGCAG,8920 fluorescence intensity (a.u.)
3,ACACAGGCACGGAGGTGGCACACTCCTCTCGCCTCGCTTTCGGAGTCACCTAGTGCAG,8250 fluorescence intensity (a.u.)
4,CATGCGCCGCCTACCCACCTCAGCATCCGGCGTTGTCTCCCGGAGTCACCTAGTGCAG,8810 fluorescence intensity (a.u.)
5,TTTAATTCATTTTCTAGATTCTATAACCACATCTTTTTAGCGGAGTCACCTAGTGCAG,9640 fluorescence intensity (a.u.)
6,ACTGACATTCCCAACATCATCGCCACATGCAAACGGCTAGCGGAGTCACCTAGTGCAG,8640 fluorescence intensity (a.u.)
7,GCCGTTTCCATTCTACCCAAACACCACGCTGGATCGCCTCCGGAGTCACCTAGTGCAG,12500 fluorescence intensity (a.u.)
8,TTGACTTTTTCTCACATGTTTGACCATTCGTCTTATTCAACGGAGTCACCTAGTGCAG,15400 fluorescence intensity (a.u.)
9,CACTCTCTCCTCGAACGCCTCACCCCGCCCACGCCTGCACCGGAGTCACCTAGTGCAG,8450 fluorescence intensity (a.u.)
10,GCCGCCCATCGATCTGCAGCTTCGCCCGCGCCGCCGGCGACGGAGTCACCTAGTGCAG,10300 fluorescence intensity (a.u.)
11,AGCCAATCCGCCCAACCAGATGCCCTACCCGGCGGCCTCTCGGAGTCACCTAGTGCAG,10500 fluorescence intensity (a.u.)
12,TGTTTTTTGGCATTGATTTTAATCTTTTCTTGGGGTCACACGGAGTCACCTAGTGCAG,8300 fluorescence intensity (a.u.)
13,ACCAGCACAACAAATTCGATCTCTTGAAGCTAGCTTTCTCCGGAGTCACCTAGTGCAG,8230 fluorescence intensity (a.u.)
14,GATGGATGTTTTTCTTTTTTTCTCAGATTTTTTCTAATTTCGGAGTCACCTAGTGCAG,9140 fluorescence intensity (a.u.)
15,AAGCCGCCGTCGCGTATCTCATCTCGTGTCATCGAGTGGTCGGAGTCACCTAGTGCAG,10300 fluorescence intensity (a.u.)
16,TTCTGTTCATGCCATAAACCATGTACCGCATATACTTTAGCGGAGTCACCTAGTGCAG,10200 fluorescence intensity (a.u.)
17,CTTTGTCATGCACGGCTTCACTTACTCTGCAATATCATGTCGGAGTCACCTAGTGCAG,9650 fluorescence intensity (a.u.)
18,CAACCACCAACTCCACACGCTGTTCATGTCACGACGGTTTCGGAGTCACCTAGTGCAG,11600 fluorescence intensity (a.u.)
19,CCTGCTGGAGGTGGAGGTGGAGGTGGAGGTGGAGGGTATACGGAGTCACCTAGTGCAG,11700 fluorescence intensity (a.u.)
20,TTAAGTTTTTGCTTGCACTGTTTAACCACTCGTTTCATTCCGGAGTCACCTAGTGCAG,12400 fluorescence intensity (a.u.)
21,CCGTTTCGTCTGTCCCTGGACACATGTCGCGTCCTGATTGCGGAGTCACCTAGTGCAG,8030 fluorescence intensity (a.u.)

# — article PMC7819943, “Rice protein-binding microarrays: a tool to detect cis-acting elements near promoter regions in rice”
